PubChem BioAssay AID743121 – NCATS | 2013
The deposit covers about 26,000 reagents; this is a random part of them. In the full data, 167 (0.63%) were called active. 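Calls are per gene from RSA p-values that are not deposited; an individual active-marked siRNA can sensitise only weakly.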 Unmarked entries are inactive. The numbers tell different reagents against one gene apart. Not all columns of the deposit are shown. Reagent sequences are not shown.

- Screen: 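Knock-downs that sensitise breast cancer cells to camptothecin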 (primary screen)
- Cell system: MDA-MB-231 cells, a human breast cancer line
- Reagents: single siRNA against human genes, 20 nM siRNA (0.8 pmol per well)
- Time to read-out: 120 h (drug added 48 h after transfection, read 72 h later)
- Challenge: camptothecin 20 nM (about EC30) for 72 h; vehicle 0.1% DMSO in parallel plates
- Detection: 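CellTiter-Glo ATP signal, scaled to control siRNA as percent viability; sensitisation given as log2 of untreated divided by camptothecin-treated viability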
- Scale: log2 vehicle/camptothecin viability: higher = stronger sensitisation to camptothecin
- Active means: 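Active genes have an RSA gene-level p-value below 0.001, computed from the ratios of their separate siRNAs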

log2 vehicle/camptothecin viability, by target and reagent
PLCD3 (GeneID 113026): #1 -0.312; #2 -0.287; #3 -0.794
RPE65 (GeneID 6121): #1 -0.113; #2 -0.169; #3 -0.328; #4 -0.00421
ADH1C (GeneID 126): #1 0.217; #2 -0.267; #3 -0.2; #4 0.0739
TGM4 (GeneID 7047): #1 -0.572; #2 -0.0634; #3 0.132
FFAR3 (GeneID 2865): #1 -0.357; #2 0.0361; #3 -0.519; #4 -0.327; #5 -0.00264; #6 -0.266; #7 -0.0912; #8 -0.397
FAAH (GeneID 2166): #1 0.0514; #2 0.693; #3 -0.235; #4 0.192
SLC6A2 (GeneID 6530): #1 0.151; #2 0.6; #3 0.103; #4 0.667
MAP2K4 (GeneID 6416): #1 -0.595; #2 -0.324; #3 -0.324; #4 -0.18
POLK (GeneID 51426): #1 0.0432; #2 -0.119; #3 -0.428
RNPEP (GeneID 6051): #1 0.624; #2 -0.329; #3 -0.0323
OXGR1 (GeneID 27199): #1 -0.243; #2 -0.197; #3 -0.221; #4 1.23
DMPK (GeneID 1760): #1 0.141; #2 -0.13; #3 -0.165; #4 0.374
MEX3A (GeneID 92312): #1 -0.205; #2 -0.42; #3 -0.415; #4 -0.0863
PACSIN3 (GeneID 29763): #1 -0.292; #2 -0.387; #3 -0.237; #4 -0.197
ATP7A (GeneID 538): #1 0.367; #2 0.355; #3 -0.191; #4 -0.015
CYP4F2 (GeneID 8529): #1 -0.531; #2 -0.114
DCLRE1C (GeneID 64421): #1 0.221; #2 -0.0746; #3 -0.321; #4 -0.313
HDAC11 (GeneID 79885): #1 -0.0472; #2 -0.479; #3 -0.0791; #4 0.435

Sorted by “log2 vehicle/camptothecin viability” (high to low): some entries from above
target	reagent no.	log2 vehicle/camptothecin viability
OXGR1 (GeneID 27199)	4	1.23
RNPEP (GeneID 6051)	1	0.624
DMPK (GeneID 1760)	1	0.141
RNPEP (GeneID 6051)	3	-0.0323
POLK (GeneID 51426)	2	-0.119
OXGR1 (GeneID 27199)	2	-0.197
OXGR1 (GeneID 27199)	3	-0.221
OXGR1 (GeneID 27199)	1	-0.243
RNPEP (GeneID 6051)	2	-0.329
POLK (GeneID 51426)	3	-0.428
